# PubChem BioAssay AID504791 – Drosophila RNAi Screening Center – 2011
# Test: 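Genes of the fly required for silencing by miRNA, siRNA or endo-siRNA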 (primary screen)
# Cells: Drosophila S2-derived reporter cells
# Knock-down reagent: long dsRNA against Drosophila genes, about 150-250 ng dsRNA per well (siRNA assay); about 80-120 ng (miRNA assay)
# Time to read-out: about 5 days (siRNA assay); about 4 days (miRNA assay)
# Challenge: copper sulfate induction of reporters: 25 µM (siRNA assay); 200 mM stated (miRNA assay), 1-2 days before reading
# Read-out: 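Dual luciferase assay: Renilla to firefly signal ratio in each well, scaled to the mean ratio of its plate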
# Direction: siRNA reporter hit score: higher = 3 marks a strong hit with raised ratio; -3 a strong hit with lowered ratio
# Hit rule: 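First-pass picks had plate-scaled ratios over 1.5 for the siRNA assay, over 1.6 for the miRNA assay, or under 0.6; two distinct dsRNAs had to score alike on retest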
# In all, the deposit lists about 23,000 reagents; below is an unselected part of those that have a named target and a result. Of all reagents, 199 (0.86%) are marked active. 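Plate-scaled ratios behind the calls are not deposited; printed light signals are raw; many rows marked increased or decreased are still called inactive.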 A number with no mark means an inactive call. No sequences are given here.
Target gene,amplicon,siRNA reporter hit score,stable siRNA reporter change,miRNA reporter change,"stable assay Renilla, run 1 (luminescence)","stable assay firefly, run 1 (luminescence)"
FarO,DRSC18475,,,,5507,3.18e5
Liprin-beta,DRSC09795,,,,5806,2.69e5
Liprin-beta,DRSC23339,,,,3684,2.91e5
CheA75a,DRSC10807,,,,7294,2.77e5
Tdc2,DRSC04999,,,,7062,3.71e5
ssp3,DRSC02669,,,,7814,4.36e5
ssp3,DRSC02670,,,,6908,4.64e5
CG4955,DRSC19927,,,,7268,4.59e5
CG32564,DRSC19933,,,,4547,4.11e5
CG3632,DRSC19137,,,,6252,5.79e5
CG3632,DRSC19871,,,,7578,5.44e5
Gfrl,DRSC15197,,,,9415,3.14e5
Gfrl,DRSC15199,,,,7091,3.31e5
Gfrl,DRSC15565,,,,8238,3.69e5
Gfrl,DRSC15719,,,,8411,3.50e5
Or59b,DRSC04632,,,,6883,4.26e5
Prosbeta4R1,DRSC00502,,,,7555,4.18e5
CG43066,DRSC06927,,,,4810,3.72e5
alpha-Catr,DRSC04669,,,,4487,2.56e5
Doc3,DRSC10480,,,,6575,3.92e5
Axs,DRSC19333,,,,5139,4.91e5
CG5254,DRSC18611,,reporter ratio raised past the hit cutoff,,8754,3.28e5
Dnali1,DRSC16158,,,,9223,5.06e5
CG14435,DRSC17928,,,,4508,2.00e5
CG14435,DRSC23282,,,,2991,2.55e5
MTA1-like,DRSC12382,,,,6035,4.52e5
MTA1-like,DRSC22022,,,,8379,5.14e5
osp,DRSC01409,,,,5684,3.16e5
osp,DRSC03585,,,,10410,1.03e6
Trc8,DRSC15437,,,,6499,4.59e5
CG9522,DRSC20197,,,,6151,4.03e5
hrm,DRSC04853,,,,6683,4.60e5
Ance-5,DRSC04055,,,,25890,1.08e6
CG32944,DRSC12138,,,,6787,3.57e5
CG32944,DRSC12341,,,,7575,4.80e5
aop,DRSC00801,,,reporter ratio lowered past the hit cutoff,6550,2.97e5
aop,DRSC22999,,,,2875,2.30e5
Sox21a,DRSC10819,,,,7190,4.00e5
CG13705,DRSC08314,,,,7330,5.93e5
CG13705,DRSC22691,,,,4459,4.41e5
tgo,DRSC17077,,,,8099,3.36e5
CG11300,DRSC04104,,,,6587,3.34e5
Snx3,DRSC16027,,,,6667,3.82e5
Uggt,DRSC11315,,,,8207,2.45e5
Pepck1,DRSC07505,,,,6802,3.83e5
CG33282,DRSC00422,,,,7188,3.01e5
Fer1HCH,DRSC16671,,,,8482,3.59e5
Ars2,DRSC04893,-3 (active),reporter ratio raised past the hit cutoff,reporter ratio raised past the hit cutoff,22390,1.26e6
Obp56e,DRSC07188,,,,5966,3.09e5
CG30288,DRSC22005,,,,8301,5.30e5
MtnB,DRSC22744,,reporter ratio lowered past the hit cutoff,,2051,3.44e5
CG31082 (retired record),DRSC13775,,,,3635,3.47e5
CG11885,DRSC00329,,reporter ratio raised past the hit cutoff,,3780,1.22e5
CG5412,DRSC15796,,,,7929,3.02e5

Active calls (from the list above):
Target gene,amplicon,siRNA reporter hit score,stable siRNA reporter change,miRNA reporter change,"stable assay Renilla, run 1 (luminescence)","stable assay firefly, run 1 (luminescence)"
Ars2,DRSC04893,-3 (active),reporter ratio raised past the hit cutoff,reporter ratio raised past the hit cutoff,22390,1.26e6

Further results:
Target gene,amplicon,siRNA reporter hit score,stable siRNA reporter change,miRNA reporter change,"stable assay Renilla, run 1 (luminescence)","stable assay firefly, run 1 (luminescence)"
CG15023,DRSC08477,,,,7054,5.18e5
CG15023,DRSC25462,,,reporter ratio raised past the hit cutoff,,
CG14762,DRSC05073,,,,4683,4.02e5
CG14762,DRSC06496,,,,6432,3.26e5
CG11373,DRSC12170,,,,7330,4.20e5
Targ3,DRSC11471,,,,8140,7.15e5
Mur82C,DRSC12011,,,,4055,3.79e5
Mur82C,DRSC12212,,,,4466,4.90e5
Nost,DRSC18037,,,,6899,4.06e5
Nost,DRSC18338,,,,6923,3.99e5
Acox3,DRSC03251,,,,7487,3.67e5
Spn88Ea,DRSC17061,,,,6814,3.07e5
COX7C,DRSC06831,,,,4147,4.88e5
CG11151,DRSC19387,,,,5227,5.39e5
CG9162 (retired record),DRSC03151,,,,20367,5.04e5
CG3040,DRSC22486,,reporter ratio raised past the hit cutoff,,1475,74601
Akt,DRSC14108,,,,7618,3.56e5
Gpdh2,DRSC04346,,,,4524,3.28e5
E(Pc),DRSC05281,,,,5599,3.96e5
E(Pc),DRSC07408,,,,5224,3.45e5
CG3735,DRSC04411,,,,23828,1.11e6
rictor,DRSC20071,,,,5999,4.58e5
CG14367,DRSC14829,,,,7602,3.21e5
CG31386 (retired record),DRSC22769,,,,3384,4.02e5
CG31386 (retired record),DRSC23186,,,,3751,3.12e5
scrib,DRSC13774,,,,5871,3.54e5
scrib,DRSC15809,,reporter ratio lowered past the hit cutoff,,7504,8.20e5
scrib,DRSC17051,,,,6463,4.69e5
CG33494,DRSC13715,,,,6195,4.29e5
